According to patent publication US8952149B2, “Tricyclic tetrahydroquinoline antibacterial agents” (Zoetis LLC, priority 2012, dated 2015):

Tested on: S. pyogenes 02C0203
Experiment: AUC/MIC ratios required for efficacy (PK-PD)
Assay type: in vivo, mice
Settings: last column of Table 4, AUC/MIC ratios required for efficacy
Experimental: In this example, the plasma concentrations of selected compounds were determined in mice that were infected with S. pyogenes 02C0203 at an oral dose of 100 mg/kg^4. Plasma samples were assayed for selected compounds using LC/MS/MS with multiple reaction monitoring. Free fractions were measured using equilibrium dialysis^5.
Separate groups of immunosuppressed mice were infected as above and orally dosed 2 hours post-infection with 100 mg/kg of the selected compounds. Thigh tissue samples (10% in PBS) and plasma were collected at 0.5, 1, 2, 4, 8 and 24 hours post-dose (n=3) for quantitation of drug levels. Bacterial burden was quantitated in the thigh tissue samples from treated mice and from infected, untreated mice at each timepoint.

Row | SMILES | fAUC
1 | CCc1coc(-c2cc3c(c(F)c2F)N2C[C@H](C)O[C@H](C)[C@H]2C2(C3)C(=O)NC(=O)NC2=O)n1 (racemic) [Example 9, (2S,4R,4aR)-8-(4-ethyloxazol-2-yl)-9,10-difluoro-2,4-dimethyl-2,4,4a,6-tetrahydro-1H,1′H-spiro[[1,4]oxazino[4,3-a]quinoline-5,5′-pyrimidine]-2′,4′,6′(3′H)-trione] | 4
2 | Cc1coc(-c2cc(F)c3c(c2)CC2(C(=O)NC(=O)NC2=O)[C@H]2[C@H](C)O[C@H](C)CN32)n1 (single isomer, unassigned) [Example 1] | 2
